According to the supplement of paper PMC10849652:
Some of the results follow.

Protein sequences, listed by entry. Tags and fused reporters are not part of them. Lines headed by an entry give the natural chain unless they say otherwise; changes in a name come on top.
UniProt P51531, whole entry, looked up: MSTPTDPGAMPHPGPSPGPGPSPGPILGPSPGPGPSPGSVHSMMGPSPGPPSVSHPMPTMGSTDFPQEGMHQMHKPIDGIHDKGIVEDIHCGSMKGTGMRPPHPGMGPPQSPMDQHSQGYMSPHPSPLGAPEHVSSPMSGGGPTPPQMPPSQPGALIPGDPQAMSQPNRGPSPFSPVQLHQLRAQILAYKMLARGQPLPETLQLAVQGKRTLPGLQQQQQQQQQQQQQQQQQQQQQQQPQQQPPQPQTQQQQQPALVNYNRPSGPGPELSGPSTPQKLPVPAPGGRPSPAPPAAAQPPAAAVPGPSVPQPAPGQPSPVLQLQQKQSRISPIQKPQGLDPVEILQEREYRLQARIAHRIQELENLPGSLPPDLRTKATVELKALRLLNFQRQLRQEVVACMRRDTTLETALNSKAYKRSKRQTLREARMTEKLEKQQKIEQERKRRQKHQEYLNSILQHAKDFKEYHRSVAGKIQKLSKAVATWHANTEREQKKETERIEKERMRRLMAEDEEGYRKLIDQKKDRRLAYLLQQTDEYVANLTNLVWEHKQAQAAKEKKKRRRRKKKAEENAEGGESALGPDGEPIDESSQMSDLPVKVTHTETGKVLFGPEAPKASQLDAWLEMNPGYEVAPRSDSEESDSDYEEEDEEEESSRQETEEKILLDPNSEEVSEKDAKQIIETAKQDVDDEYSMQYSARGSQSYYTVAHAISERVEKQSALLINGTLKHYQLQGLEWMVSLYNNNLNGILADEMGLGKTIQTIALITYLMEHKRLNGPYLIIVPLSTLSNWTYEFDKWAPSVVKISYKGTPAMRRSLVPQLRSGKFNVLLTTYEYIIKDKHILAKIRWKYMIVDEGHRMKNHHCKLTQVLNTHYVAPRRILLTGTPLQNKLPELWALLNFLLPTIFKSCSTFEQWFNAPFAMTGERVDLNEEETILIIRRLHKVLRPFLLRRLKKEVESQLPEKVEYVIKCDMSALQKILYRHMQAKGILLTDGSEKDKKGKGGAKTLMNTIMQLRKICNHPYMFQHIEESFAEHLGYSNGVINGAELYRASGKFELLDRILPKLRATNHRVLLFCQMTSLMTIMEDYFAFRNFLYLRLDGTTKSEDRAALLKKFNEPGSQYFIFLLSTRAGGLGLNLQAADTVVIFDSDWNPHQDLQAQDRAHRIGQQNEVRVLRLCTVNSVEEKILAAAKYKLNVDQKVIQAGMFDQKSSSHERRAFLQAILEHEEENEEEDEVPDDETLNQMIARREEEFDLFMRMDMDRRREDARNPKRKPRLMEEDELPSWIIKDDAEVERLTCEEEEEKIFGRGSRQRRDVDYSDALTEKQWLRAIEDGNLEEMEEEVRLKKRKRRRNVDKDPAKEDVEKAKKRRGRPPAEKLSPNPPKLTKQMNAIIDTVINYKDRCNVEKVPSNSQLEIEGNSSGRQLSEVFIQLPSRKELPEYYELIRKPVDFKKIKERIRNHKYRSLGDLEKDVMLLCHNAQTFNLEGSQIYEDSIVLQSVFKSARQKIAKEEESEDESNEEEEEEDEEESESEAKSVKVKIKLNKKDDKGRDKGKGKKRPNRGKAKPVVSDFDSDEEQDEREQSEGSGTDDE
UniProt Q8WU79: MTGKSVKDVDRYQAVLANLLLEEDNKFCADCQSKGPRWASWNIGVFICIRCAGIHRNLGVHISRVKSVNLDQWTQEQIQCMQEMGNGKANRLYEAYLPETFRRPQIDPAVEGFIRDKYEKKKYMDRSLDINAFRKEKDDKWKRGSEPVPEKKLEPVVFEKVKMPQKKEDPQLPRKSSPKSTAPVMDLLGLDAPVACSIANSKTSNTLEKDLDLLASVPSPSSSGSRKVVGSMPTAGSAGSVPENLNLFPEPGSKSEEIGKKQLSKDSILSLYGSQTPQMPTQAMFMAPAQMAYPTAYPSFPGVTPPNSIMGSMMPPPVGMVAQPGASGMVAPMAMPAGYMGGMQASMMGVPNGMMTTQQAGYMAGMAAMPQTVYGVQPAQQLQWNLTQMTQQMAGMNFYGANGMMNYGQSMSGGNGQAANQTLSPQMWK
UniProt Q00325: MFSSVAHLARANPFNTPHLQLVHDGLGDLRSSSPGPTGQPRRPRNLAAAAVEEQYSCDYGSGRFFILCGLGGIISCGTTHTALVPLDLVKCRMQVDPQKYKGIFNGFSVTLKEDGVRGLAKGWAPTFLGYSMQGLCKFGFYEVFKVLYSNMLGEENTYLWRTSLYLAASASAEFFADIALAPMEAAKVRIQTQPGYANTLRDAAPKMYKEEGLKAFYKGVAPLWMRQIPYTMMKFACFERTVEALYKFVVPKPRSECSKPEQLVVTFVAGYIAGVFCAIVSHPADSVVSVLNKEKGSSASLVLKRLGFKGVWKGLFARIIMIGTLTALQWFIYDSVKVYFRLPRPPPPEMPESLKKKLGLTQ
UniProt P31641: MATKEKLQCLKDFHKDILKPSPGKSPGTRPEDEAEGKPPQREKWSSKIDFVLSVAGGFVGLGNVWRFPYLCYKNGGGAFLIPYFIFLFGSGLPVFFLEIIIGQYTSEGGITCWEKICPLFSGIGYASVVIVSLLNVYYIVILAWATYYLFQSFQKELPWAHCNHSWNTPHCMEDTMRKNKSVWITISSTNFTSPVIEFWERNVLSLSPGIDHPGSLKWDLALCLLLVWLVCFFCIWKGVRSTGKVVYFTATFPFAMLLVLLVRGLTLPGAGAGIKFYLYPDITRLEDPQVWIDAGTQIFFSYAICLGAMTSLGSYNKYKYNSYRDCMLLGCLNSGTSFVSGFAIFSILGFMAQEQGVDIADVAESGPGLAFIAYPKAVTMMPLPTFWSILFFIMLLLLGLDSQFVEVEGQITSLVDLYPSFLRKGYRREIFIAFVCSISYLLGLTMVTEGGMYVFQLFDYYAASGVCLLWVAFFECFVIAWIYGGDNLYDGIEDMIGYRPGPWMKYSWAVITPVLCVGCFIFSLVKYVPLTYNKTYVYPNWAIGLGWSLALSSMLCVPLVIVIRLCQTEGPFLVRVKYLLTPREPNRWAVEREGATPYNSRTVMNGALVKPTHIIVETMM
UniProt P11169: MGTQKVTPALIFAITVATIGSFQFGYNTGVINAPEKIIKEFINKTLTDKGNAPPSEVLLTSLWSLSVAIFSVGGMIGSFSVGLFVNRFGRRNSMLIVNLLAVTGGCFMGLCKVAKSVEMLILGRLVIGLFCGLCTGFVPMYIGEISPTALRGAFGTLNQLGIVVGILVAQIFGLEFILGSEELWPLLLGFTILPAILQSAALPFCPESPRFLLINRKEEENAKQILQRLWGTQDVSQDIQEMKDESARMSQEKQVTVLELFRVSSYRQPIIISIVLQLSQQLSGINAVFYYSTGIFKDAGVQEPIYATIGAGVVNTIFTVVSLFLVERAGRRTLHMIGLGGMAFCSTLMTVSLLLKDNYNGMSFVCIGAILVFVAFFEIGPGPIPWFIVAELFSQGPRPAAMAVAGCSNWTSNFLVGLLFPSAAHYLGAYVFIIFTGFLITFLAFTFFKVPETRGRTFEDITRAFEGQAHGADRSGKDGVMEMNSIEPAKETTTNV
UniProt Q01650: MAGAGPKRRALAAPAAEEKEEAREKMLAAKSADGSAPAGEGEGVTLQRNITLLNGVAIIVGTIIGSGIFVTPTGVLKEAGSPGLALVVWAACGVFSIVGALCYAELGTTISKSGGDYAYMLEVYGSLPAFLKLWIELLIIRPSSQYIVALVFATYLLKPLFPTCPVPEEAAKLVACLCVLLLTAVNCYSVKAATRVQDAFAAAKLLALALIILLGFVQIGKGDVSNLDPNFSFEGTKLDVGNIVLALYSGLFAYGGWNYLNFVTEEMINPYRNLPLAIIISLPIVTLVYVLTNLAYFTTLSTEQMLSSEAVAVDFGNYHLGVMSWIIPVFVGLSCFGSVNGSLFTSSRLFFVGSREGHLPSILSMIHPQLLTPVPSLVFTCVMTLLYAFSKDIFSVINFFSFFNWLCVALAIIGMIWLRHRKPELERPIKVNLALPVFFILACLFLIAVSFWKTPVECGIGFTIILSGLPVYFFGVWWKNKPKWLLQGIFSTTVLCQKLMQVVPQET
UniProt Q6PML9: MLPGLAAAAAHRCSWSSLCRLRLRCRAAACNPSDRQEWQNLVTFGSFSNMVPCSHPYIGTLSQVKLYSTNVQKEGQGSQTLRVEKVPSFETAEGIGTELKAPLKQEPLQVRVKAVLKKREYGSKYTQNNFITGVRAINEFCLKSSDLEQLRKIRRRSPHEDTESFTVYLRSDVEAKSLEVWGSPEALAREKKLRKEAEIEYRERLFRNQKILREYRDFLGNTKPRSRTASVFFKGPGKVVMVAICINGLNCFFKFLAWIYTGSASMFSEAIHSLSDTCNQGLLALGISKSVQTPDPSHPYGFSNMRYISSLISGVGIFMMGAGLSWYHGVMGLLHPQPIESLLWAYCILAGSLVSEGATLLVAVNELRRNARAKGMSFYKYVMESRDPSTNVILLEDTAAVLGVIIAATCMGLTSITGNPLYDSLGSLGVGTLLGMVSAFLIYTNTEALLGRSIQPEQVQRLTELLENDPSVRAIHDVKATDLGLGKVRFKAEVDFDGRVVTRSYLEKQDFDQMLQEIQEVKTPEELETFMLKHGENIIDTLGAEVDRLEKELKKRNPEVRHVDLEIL
UniProt Q96CQ1: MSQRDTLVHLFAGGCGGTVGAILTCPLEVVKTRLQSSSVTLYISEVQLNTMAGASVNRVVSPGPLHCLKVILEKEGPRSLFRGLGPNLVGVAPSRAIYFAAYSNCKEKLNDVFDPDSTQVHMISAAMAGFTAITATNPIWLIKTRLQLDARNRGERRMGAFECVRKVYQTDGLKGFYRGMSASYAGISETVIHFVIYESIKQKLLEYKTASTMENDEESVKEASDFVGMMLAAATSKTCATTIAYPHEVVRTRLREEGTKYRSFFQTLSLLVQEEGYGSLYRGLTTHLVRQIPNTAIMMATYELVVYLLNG
UniProt Q8TB61: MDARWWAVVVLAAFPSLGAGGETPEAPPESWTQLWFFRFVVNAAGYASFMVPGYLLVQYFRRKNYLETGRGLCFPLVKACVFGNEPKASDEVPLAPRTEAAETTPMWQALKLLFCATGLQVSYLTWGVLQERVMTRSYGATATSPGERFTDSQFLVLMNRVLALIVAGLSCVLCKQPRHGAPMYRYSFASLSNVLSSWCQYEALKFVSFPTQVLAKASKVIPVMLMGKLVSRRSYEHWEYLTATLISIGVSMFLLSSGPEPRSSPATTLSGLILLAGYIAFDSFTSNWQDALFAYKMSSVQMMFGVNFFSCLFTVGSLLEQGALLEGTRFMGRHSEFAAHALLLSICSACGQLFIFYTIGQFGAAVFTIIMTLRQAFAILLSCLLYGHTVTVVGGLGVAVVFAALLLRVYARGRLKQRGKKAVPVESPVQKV
UniProt Q8TAD4: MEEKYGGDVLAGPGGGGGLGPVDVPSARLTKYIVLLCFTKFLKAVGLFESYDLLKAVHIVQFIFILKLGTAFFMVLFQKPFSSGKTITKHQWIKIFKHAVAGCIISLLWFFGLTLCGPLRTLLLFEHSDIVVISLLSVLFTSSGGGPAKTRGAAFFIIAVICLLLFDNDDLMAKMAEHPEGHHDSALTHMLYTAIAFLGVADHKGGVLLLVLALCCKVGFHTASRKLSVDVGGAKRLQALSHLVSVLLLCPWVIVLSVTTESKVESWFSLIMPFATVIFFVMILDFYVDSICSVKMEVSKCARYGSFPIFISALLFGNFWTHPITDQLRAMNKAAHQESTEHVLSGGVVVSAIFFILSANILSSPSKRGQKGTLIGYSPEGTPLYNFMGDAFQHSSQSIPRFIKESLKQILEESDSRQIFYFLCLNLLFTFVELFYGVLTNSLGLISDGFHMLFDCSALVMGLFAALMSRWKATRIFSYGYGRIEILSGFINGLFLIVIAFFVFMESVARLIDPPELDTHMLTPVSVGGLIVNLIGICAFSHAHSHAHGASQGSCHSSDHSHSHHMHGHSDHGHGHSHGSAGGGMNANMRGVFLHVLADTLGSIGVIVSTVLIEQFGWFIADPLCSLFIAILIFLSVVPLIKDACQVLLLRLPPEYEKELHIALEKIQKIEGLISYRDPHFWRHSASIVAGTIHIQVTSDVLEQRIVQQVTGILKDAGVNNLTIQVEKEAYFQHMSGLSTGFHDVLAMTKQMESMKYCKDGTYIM
UniProt Q15043: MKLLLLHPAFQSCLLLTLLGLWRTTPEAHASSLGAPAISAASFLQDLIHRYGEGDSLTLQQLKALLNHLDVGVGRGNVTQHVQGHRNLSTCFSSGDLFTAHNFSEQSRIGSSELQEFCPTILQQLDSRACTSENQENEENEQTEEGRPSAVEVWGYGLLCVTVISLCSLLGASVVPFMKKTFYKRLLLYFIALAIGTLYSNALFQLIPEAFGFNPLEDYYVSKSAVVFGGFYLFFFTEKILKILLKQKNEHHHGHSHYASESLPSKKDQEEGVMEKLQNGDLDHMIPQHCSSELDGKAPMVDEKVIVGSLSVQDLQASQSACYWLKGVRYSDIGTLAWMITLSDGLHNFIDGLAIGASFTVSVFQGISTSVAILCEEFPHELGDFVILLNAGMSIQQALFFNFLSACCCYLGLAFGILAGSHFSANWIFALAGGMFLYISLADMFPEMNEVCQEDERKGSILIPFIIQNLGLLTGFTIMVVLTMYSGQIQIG

Each target was assayed with CNC(=O)C1=CC=CC=C1NC2=NC(=NC=C2Cl)NC3=C(C=C(C=C3)N4CCOCC4)OC (assay: log2 fold change, soluble protein after heating vs DMSO (PISA); higher = thermal stabilisation; K562 lysate, 10 uM; active = over 0.2 and 3.5 SD of the protein, either way, in both replicates (recomputed)).
Outline: (§1)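 A 30 min treatment with 10 μM compound was applied to crude K562 extract at 1 mg/mL protein in PBS pH 7.4 with 1 mM MgCl2. Heating for 3 min spanned 48°C-58°C, after which aliquots were pooled, adjusted to 0.5% NP-40 at 4°C and spun at 21,000xg for 90 min. TMTpro 16plex LC-MS/MS of the supernatant, with channel sums equalised, gave values recorded as log-two fold change in thermal stability against solvent controls, from duplicates.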

Row | Target | log2 fold change
1 | SLC43A1 (UniProt O75387) | inactive: -0.031
2 | SMARCA2 (UniProt P51531) | inactive: 0.053
3 | SLC25A25 isoform 3 (UniProt Q6KCM7) | inactive: 0.007
4 | SLC2A1 (UniProt P11166) | inactive: -0.021
5 | SLC25A32 (UniProt Q9H2D1) | inactive: -0.01
6 | SMAP2 (UniProt Q8WU79) | inactive: -0.058
7 | SLC43A3 isoform 2 (UniProt Q8NBI5) | inactive: -0.012
8 | SLC25A42 (UniProt Q86VD7) | inactive: 0.041
9 | SLC35A2 isoform 4 (UniProt P78381) | inactive: -0.029
10 | SLC25A3 isoform 2 (UniProt Q00325) | inactive: 0.01
11 | SLC25A10 isoform 2 (UniProt Q9UBX3) | inactive: 0.045
12 | SLC39A10 (UniProt Q9ULF5) | inactive: 0
13 | SLC6A6 (UniProt P31641) | inactive: -0.02
14 | SLC30A10 (UniProt Q6XR72) | inactive: 0.151
15 | SLC4A2 (UniProt P04920) | inactive: -0.022
16 | SLC2A3 (UniProt P11169) | inactive: 0.013
17 | SLC7A5 (UniProt Q01650) | inactive: -0.047
18 | SLC25A15 (UniProt Q9Y619) | inactive: 0.051
19 | SLC25A37 (UniProt Q9NYZ2) | inactive: 0.103

Row | Target | log2 fold change
20 | SLC4A7 isoform 7 (UniProt Q9Y6M7) | inactive: -0.011
21 | SLC38A2 (UniProt Q96QD8) | inactive: -0.034
22 | SLC30A9 (UniProt Q6PML9) | inactive: 0.002
23 | SLC38A5 (UniProt Q8WUX1) | inactive: 0.013
24 | SLC25A36 (UniProt Q96CQ1) | inactive: 0.048
25 | SLC35B2 (UniProt Q8TB61) | inactive: 0.045
26 | SLC7A1 (UniProt P30825) | inactive: -0.013
27 | SLC25A40 (UniProt Q8TBP6) | inactive: 0.022
28 | SMAP1 isoform 2 (UniProt Q8IYB5) | inactive: -0.001
29 | SLC33A1 (UniProt O00400) | inactive: -0.001
30 | SLC25A31 (UniProt Q9H0C2) | inactive: 0.018
31 | SLC6A9 isoform 2 (UniProt P48067) | inactive: 0.017
32 | SLC25A38 (UniProt Q96DW6) | inactive: -0.049
33 | SLC7A6 (UniProt Q92536) | inactive: -0.121
34 | SLC30A5 (UniProt Q8TAD4) | inactive: -0.011
35 | SMAD4 (UniProt Q13485) | inactive: 0.036
36 | SLC6A8 (UniProt P48029) | inactive: 0.033
37 | SLC25A24 (UniProt Q6NUK1) | inactive: -0.003
38 | SLC39A14 (UniProt Q15043) | inactive: 0.017

These targets were tested with CNC(=O)c1ccc(Nc2ncc(C(F)(F)F)c(NCc3nccnc3N(C)S(C)(=O)=O)n2)cc1 [defactinib] in the same assay as above.
Outline: as §1

Row | Target | log2 fold change
39 | SLC43A1 (UniProt O75387) | inactive: 0.012
40 | SMARCA2 (UniProt P51531) | inactive: 0.047
41 | SLC25A25 isoform 3 (UniProt Q6KCM7) | inactive: 0.029
42 | SLC2A1 (UniProt P11166) | inactive: 0.03
43 | SLC25A32 (UniProt Q9H2D1) | inactive: 0.03
44 | SMAP2 (UniProt Q8WU79) | inactive: 0.024
45 | SLC43A3 isoform 2 (UniProt Q8NBI5) | inactive: 0.024
46 | SLC25A42 (UniProt Q86VD7) | inactive: -0.048
47 | SLC35A2 isoform 4 (UniProt P78381) | inactive: 0.001
48 | SLC25A3 isoform 2 (UniProt Q00325) | inactive: -0.01
49 | SLC25A10 isoform 2 (UniProt Q9UBX3) | inactive: 0.012
50 | SLC39A10 (UniProt Q9ULF5) | inactive: 0.039
51 | SLC6A6 (UniProt P31641) | inactive: 0.012
52 | SLC30A10 (UniProt Q6XR72) | inactive: 0.039
53 | SLC4A2 (UniProt P04920) | inactive: 0.058
54 | SLC2A3 (UniProt P11169) | inactive: -0.014
55 | SLC7A5 (UniProt Q01650) | inactive: -0.044
56 | SLC25A15 (UniProt Q9Y619) | inactive: 0.027
57 | SLC25A37 (UniProt Q9NYZ2) | inactive: -0.027

Row | Target | log2 fold change
58 | SLC4A7 isoform 7 (UniProt Q9Y6M7) | inactive: -0.013
59 | SLC38A2 (UniProt Q96QD8) | inactive: 0.021
60 | SLC30A9 (UniProt Q6PML9) | inactive: 0.064
61 | SLC38A5 (UniProt Q8WUX1) | inactive: -0.037
62 | SLC25A36 (UniProt Q96CQ1) | inactive: 0.068
63 | SLC35B2 (UniProt Q8TB61) | inactive: -0.001
64 | SLC7A1 (UniProt P30825) | inactive: 0.002
65 | SLC25A40 (UniProt Q8TBP6) | inactive: 0.037
66 | SMAP1 isoform 2 (UniProt Q8IYB5) | inactive: -0.025
67 | SLC33A1 (UniProt O00400) | inactive: -0.006
68 | SLC25A31 (UniProt Q9H0C2) | inactive: -0.047
69 | SLC6A9 isoform 2 (UniProt P48067) | inactive: -0.033
70 | SLC25A38 (UniProt Q96DW6) | inactive: 0.074
71 | SLC7A6 (UniProt Q92536) | inactive: -0.013
72 | SLC30A5 (UniProt Q8TAD4) | inactive: 0.075
73 | SMAD4 (UniProt Q13485) | inactive: -0.007
74 | SLC6A8 (UniProt P48029) | inactive: 0.004
75 | SLC25A24 (UniProt Q6NUK1) | inactive: 0.023
76 | SLC39A14 (UniProt Q15043) | inactive: -0.035
